Data as given in patent US20090202980A1.
Results are given in words; binding and its absence hold for the method and conditions named. For part of these data: Binding seen in cells or lysates may run through a third protein. Some entries that bind do so weakly or less than the wild type.

Chains of the proteins cited; added tags and fusions are not shown. Lines headed by an entry give the natural chain unless they say otherwise; changes in a name come on top. A line that says so, or that is headed by a name, gives the form on record, which may keep a tag or linker. Residues count along the entry.
UniProt P00750: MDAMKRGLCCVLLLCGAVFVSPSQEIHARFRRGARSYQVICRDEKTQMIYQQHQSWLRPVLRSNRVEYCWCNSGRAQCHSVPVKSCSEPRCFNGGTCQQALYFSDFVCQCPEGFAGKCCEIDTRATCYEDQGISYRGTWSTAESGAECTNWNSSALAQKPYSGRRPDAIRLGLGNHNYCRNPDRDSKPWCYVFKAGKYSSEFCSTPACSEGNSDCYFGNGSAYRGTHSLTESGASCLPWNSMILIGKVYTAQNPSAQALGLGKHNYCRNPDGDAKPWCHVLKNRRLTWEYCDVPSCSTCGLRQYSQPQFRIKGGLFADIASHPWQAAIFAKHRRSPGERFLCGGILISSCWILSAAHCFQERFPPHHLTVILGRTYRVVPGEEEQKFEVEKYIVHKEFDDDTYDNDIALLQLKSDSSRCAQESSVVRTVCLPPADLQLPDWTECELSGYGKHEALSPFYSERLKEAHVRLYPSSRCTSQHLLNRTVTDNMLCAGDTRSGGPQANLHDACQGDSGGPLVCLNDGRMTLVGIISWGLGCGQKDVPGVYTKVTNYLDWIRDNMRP
UniProt P00748, residues 20-615: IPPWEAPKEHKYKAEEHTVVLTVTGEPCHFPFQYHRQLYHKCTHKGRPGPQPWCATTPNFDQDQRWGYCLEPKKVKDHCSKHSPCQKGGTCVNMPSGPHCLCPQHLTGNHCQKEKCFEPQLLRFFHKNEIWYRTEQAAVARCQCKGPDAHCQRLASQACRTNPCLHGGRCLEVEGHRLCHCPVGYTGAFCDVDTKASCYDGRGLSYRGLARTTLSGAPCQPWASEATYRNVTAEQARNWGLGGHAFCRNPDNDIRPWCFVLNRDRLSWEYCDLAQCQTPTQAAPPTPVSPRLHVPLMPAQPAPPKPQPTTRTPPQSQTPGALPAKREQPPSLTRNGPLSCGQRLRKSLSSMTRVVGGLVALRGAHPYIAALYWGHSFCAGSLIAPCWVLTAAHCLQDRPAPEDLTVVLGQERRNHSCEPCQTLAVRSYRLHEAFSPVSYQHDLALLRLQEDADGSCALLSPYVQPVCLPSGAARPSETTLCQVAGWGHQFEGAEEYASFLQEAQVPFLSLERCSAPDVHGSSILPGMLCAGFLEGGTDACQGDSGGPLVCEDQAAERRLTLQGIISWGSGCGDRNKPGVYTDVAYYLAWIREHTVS
UniProt P02751: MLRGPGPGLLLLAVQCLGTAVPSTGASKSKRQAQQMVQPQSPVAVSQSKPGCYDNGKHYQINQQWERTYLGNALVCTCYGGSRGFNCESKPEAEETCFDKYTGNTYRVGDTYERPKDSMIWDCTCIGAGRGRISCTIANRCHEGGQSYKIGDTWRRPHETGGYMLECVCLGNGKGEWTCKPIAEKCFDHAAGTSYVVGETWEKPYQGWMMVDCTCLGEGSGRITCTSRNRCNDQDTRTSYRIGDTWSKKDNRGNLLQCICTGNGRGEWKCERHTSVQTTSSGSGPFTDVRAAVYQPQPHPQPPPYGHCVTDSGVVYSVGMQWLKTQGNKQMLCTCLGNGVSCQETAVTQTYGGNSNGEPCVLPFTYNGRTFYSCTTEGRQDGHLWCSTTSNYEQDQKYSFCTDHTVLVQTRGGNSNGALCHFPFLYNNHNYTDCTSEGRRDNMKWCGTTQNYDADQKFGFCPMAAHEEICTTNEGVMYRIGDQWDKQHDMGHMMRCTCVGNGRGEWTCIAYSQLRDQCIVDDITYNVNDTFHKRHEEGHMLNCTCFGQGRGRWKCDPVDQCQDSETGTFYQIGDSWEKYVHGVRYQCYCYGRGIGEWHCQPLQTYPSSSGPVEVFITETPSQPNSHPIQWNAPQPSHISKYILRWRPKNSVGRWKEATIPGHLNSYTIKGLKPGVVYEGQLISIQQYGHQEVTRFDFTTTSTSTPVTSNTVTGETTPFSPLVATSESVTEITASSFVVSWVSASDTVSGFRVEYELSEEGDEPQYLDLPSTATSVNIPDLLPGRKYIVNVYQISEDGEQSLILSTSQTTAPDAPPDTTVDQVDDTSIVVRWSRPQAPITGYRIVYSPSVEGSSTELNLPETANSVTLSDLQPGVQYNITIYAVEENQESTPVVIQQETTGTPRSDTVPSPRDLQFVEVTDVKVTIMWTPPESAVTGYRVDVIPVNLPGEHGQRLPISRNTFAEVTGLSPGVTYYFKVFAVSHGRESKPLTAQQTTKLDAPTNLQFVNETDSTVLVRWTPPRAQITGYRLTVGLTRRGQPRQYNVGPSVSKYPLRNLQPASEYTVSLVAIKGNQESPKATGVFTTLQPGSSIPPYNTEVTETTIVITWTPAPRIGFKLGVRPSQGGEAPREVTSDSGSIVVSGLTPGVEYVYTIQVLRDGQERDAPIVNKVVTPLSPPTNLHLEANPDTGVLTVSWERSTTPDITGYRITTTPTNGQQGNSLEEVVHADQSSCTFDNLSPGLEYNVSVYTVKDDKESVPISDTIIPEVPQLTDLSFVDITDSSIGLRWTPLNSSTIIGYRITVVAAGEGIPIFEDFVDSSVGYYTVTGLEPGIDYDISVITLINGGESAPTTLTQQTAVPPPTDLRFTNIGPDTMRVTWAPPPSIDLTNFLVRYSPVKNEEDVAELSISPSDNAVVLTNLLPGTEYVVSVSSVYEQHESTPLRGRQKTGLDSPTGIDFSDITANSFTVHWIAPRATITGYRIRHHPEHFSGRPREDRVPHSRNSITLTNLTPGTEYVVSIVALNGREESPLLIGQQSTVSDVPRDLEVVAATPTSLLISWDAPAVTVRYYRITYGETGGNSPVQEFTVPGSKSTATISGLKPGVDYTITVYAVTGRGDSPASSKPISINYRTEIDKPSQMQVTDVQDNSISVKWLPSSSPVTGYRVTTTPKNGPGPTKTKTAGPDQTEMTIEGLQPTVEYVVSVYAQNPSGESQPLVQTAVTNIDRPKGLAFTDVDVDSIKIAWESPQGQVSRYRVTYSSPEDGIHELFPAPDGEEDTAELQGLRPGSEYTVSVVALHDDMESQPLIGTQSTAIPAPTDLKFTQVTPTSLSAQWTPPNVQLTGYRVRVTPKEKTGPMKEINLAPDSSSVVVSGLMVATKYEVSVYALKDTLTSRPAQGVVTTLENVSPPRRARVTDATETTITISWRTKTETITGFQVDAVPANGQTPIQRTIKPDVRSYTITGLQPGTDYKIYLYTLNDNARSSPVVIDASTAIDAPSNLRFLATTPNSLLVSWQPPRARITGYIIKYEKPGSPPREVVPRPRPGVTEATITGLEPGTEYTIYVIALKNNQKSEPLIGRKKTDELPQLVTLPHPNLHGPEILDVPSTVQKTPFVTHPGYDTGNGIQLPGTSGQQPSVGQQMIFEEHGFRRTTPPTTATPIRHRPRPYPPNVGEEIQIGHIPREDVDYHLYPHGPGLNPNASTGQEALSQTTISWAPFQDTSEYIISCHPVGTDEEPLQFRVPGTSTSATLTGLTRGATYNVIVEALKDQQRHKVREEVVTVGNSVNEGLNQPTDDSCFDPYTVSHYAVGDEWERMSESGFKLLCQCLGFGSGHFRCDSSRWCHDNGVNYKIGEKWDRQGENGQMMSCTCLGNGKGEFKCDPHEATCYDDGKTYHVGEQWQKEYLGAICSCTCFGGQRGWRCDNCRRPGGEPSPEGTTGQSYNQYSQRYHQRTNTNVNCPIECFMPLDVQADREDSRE
Fn F4-5-GST (finger domains 4-5 of human fibronectin with C-terminal GST tag) (P02751, form named): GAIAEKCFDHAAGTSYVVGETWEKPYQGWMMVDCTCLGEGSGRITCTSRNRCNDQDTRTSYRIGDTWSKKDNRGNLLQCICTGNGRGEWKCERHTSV
UniProt Q04756: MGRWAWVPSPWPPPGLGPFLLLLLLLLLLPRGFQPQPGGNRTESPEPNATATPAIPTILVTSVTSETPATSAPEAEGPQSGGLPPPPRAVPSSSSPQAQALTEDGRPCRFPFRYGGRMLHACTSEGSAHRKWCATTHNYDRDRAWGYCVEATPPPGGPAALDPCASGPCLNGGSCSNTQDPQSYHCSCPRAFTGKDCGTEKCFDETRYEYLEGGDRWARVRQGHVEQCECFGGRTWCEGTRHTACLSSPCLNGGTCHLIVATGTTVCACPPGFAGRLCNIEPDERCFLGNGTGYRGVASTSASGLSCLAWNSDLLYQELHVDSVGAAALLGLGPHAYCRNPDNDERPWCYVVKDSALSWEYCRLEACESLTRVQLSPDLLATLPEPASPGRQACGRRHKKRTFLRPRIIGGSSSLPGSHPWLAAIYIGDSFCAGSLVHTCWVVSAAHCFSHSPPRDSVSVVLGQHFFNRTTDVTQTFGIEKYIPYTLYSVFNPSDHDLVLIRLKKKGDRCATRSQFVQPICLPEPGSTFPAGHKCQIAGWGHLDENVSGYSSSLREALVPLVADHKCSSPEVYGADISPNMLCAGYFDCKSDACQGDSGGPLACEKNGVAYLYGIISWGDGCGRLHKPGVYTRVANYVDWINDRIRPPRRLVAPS

Tests used:
[1] = target: human islet amyloid polypeptide, full length (fl-hIAPP) (human); test: pull-down with IAPP fibrils, Western blot
[2] = target: human amyloid-β peptide Aβ(1-40) (human); test: pull-down with Aβ fibrils, Western blot
[3] = target: T1, fibrin peptide 85 (FP13), human fibrin α-chain fragment α148-160 (human); test: ELISA, immobilized peptide
T1 sequence (peptide): KRLEVDIDIKIRS

[4] = target: T1, fibrin peptide 85 (FP13), human fibrin α-chain fragment α148-160 (human); test: ELISA, immobilized peptide, 10 mM εACA
[5] = target: T2, amyloid fragment of transthyretin (TTR11); test: ELISA, immobilized peptide
T2 sequence (peptide): YTIAALLSPYS

[6] = target: human amyloid-β peptide Aβ(1-40) (human); test: ELISA, immobilized peptide
[7] = target: human islet amyloid polypeptide, full length (fl-hIAPP) (human); test: ELISA, immobilized peptide

Substance	binding [1]	binding [3]	also measured
tPA-F-EGF-K1-GST (finger, EGF and kringle 1 domains of human tPA with C-terminal GST tag) (from UniProt P00750 36-210)	binds	–	binding [2]: binds
human factor XII (Hageman factor) (from UniProt P00748 20-615) (enzyme)	–	binds	–
Fn F4-GST (fourth finger domain of human fibronectin with C-terminal GST tag) (from UniProt P02751 182-228)	binds	–	–
recombinant tissue-type plasminogen activator (tPA) (from UniProt P00750 36-562) (enzyme)	–	–	binding [4]: binds
fibronectin (full-length, purified) (from UniProt P02751 32-2477)	–	binds	binding [5]: binds; binding [6]: binds; binding [7]: binds
HGFa-F-GST (finger domain of human hepatocyte growth factor activator with C-terminal GST tag) (from UniProt Q04756 200-240; P08515 1-218)	binds	–	binding [2]: binds
Fn F4-5-GST (finger domains 4-5 of human fibronectin with C-terminal GST tag) (from UniProt P02751 182-276)	–	binds	–
